No constants are given. Whether binding was seen depends on the method and setting. Binding seen in cells or lysates may run through a third protein.

Amino acid sequences for entries named in this document (tags omitted).
UniProt D4A9L2: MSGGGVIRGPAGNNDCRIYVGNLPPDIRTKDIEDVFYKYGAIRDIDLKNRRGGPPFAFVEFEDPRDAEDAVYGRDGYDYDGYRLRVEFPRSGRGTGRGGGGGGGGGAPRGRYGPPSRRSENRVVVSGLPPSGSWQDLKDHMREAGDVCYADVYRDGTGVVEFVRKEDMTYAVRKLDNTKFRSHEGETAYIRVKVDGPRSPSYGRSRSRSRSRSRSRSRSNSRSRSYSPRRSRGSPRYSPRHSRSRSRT
UniProt Q9JK66: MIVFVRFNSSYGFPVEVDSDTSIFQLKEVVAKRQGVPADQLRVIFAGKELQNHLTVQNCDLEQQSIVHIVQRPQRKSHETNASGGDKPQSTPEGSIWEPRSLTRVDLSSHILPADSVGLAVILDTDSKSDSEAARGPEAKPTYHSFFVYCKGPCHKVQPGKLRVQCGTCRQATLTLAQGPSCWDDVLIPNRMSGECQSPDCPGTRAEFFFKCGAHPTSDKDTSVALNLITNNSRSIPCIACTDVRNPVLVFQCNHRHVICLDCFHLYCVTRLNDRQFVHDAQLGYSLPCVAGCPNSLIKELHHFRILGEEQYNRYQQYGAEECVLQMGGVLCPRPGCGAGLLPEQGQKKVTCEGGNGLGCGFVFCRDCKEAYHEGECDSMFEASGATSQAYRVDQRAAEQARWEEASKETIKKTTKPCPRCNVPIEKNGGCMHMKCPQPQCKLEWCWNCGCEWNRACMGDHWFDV

The test deals with serine- and arginine-rich splicing factor 1 (Srsf1) (rat (endogenous in rat primary chondrocytes)) (UniProt D4A9L2). Nature of the test: co-IP; Co-IP in rat primary chondrocytes; which protein was precipitated is not told; cells also treated with prednisolone (said to promote BTRC binding to Srsf1).

Take “parkin RBR E3 ubiquitin-protein ligase (PARK2) (from UniProt Q9JK66 1-465) (enzyme)”: the binding result was “no binding”.

B1: ring finger protein 125 (RNF125) (enzyme, UniProt A0A9K3Y7V2 1-233)
chain: MGSLLSSDSSKSAPTSSARRTLERSGDPELPITSFDCSVCLEVLHQPVRTRCGHVFCRSCIATSIKNNNKWTCPYCRAYLPSEGVPATDIAKRMKSEYQNCTECGTLVCLSDMRAHIRTCEKYIDKYGPLQELGETTARCVCPFCQRELDEDCLLDHCIIHHRSERRPVFCPLCHSQPNESPSTFSGSLIRHLQVSHTLFYDDFIDFDIIEEAIIRRVLDRSLLEYVNQSNTT
Consider B1, for which the binding entry was “no binding”.

For the origin of these results see publication PMC11132075.
